In PubChem BioAssay AID216 (DTP/NCI, 2004):
The list does not hold the whole screen: it gathers tests that were run many times, whatever their T/C, doses with no T/C, and many T/C values between a quarter and a half above the control. Further doses and runs are listed elsewhere. T/C is the treated group as % of the vehicle group. Some entries give survivors of the animals treated and no T/C: the source files T/C as zero there, which appears to mark a toxic dose or a test without result, not a measured value. Some survivor counts are full or nearly so, which does not show that the dose was tolerated: survival well below the control is almost never listed, so the zero probably covers shortened survival too. Survivors were counted at the toxicity check, usually on the fifth day, unless a day is given; later deaths do not show. Schedule codes are those of the source, read here as Q, the interval in days (D) or hours (H), X, the number of doses. Some doses were run more than once; the values are given in rising order. Some schedules carry Z or #; the key to these is not given. For survival time, this PubChem deposit counts one and a half times the control or more as active, and values a quarter to a half above the control carry no call in these data; other NCI protocols may use other cut-offs.

Test system: BDF1 mice, P288 leukemia ip, survival T/C
Test: NCI In Vivo Anticancer Drug Screen. Data for tumor model P288 Lymphocytic Leukemia (intraperitoneal) in B6D2F1 (BDF1) mice
Conditions: T/C endpoint: survival time, mean or median, higher T/C = longer survival
Method: The antitumor activity of compounds was measured in mice bearing transplantable tumors. Survival or tumor size were measured and the results are expressed as the measurement made in the treated group (T) divided by the measurement made in the vehicle treated control group (C). The tumor model used in this assay is P288 Lymphocytic Leukemia (intraperitoneal) in B6D2F1 (BDF1) mice

[1] = dose: 15.6 mg/kg/injection, schedule: Q01DX010 (ip), vehicle: saline
[2] = dose: 31.3 mg/kg/injection, schedule: Q01DX010 (ip), vehicle: saline
[3] = dose: 62.5 mg/kg/injection, schedule: Q01DX010 (ip), vehicle: saline
[4] = dose: 125.0 mg/kg/injection, schedule: Q01DX010 (ip), vehicle: saline
[5] = dose: 250.0 mg/kg/injection, schedule: Q01DX010 (ip), vehicle: saline
[6] = dose: 125.0 mg/kg/injection, schedule: Q01DX Z (ip), vehicle: carboxymethylcellulose (CMC)
[7] = dose: 16.0 mg/kg/injection, schedule: Q01DX010 (ip), vehicle: saline
[8] = dose: 25.0 mg/kg/injection, schedule: Q01DX Z (ip), vehicle: carboxymethylcellulose (CMC)
[9] = dose: 50.0 mg/kg/injection, schedule: Q01DX Z (ip), vehicle: carboxymethylcellulose (CMC)

## C=C1C[C@H]2[C@@H]3C=C(C)C4=CC(=O)CC[C@]4(C)[C@H]3CC[C@]2(C)[C@@]1(OC(C)=O)C(C)=O
dose: 250.0 mg/kg/injection, schedule: Q01DX010 (sc), vehicle: steroid suspending solution
  survivor count: 6 of 6
dose: 500.0 mg/kg/injection, schedule: Q01DX010 (sc), vehicle: steroid suspending solution
  survivor count: 6 of 6

## COc1ccc2c(c1OC)C(=O)O[C@@H]2[C@H]1c2c(cc3c(c2OC)OCO3)CCN1C
[1]
  T/C: 125 % of control
[2]
  survivor count: 6 of 6
[3]
  survivor count: 6 of 6
[4]
  survivor count: 6 of 6
[5]
  survivor count: 6 of 6

## CCOC(=O)NP(=O)(N1CC1(C)C)N1CC1(C)C (stereo unspecified)
[6]
  T/C: 143 % of control
dose: 1000.0 mg/kg/injection, schedule: Q01DX Z (ip), vehicle: carboxymethylcellulose (CMC)
  survivor count: 0 of 6

## CCOC(N)=O
[5]
  T/C: 126 % of control
dose: 1000.0 mg/kg/injection, schedule: Q01DX010 (ip), vehicle: saline
  survivor count: 5 of 6 and 6 of 6

## COc1cc2c(c(OC)c1OC)-c1ccc(N)c(=O)cc1[C@@H](NC(C)=O)CC2
dose: 0.25 mg/kg/injection, schedule: Q01DX010 (ip), vehicle: saline
  T/C: 142 % of control
dose: 0.5 mg/kg/injection, schedule: Q01DX010 (ip), vehicle: saline
  T/C: 141 % of control

## CS(=O)(=O)OCCN(CCOS(C)(=O)=O)c1ccc(N=O)cc1
dose: 1.0 mg/kg/injection, schedule: Q01DX010 (ip), vehicle: saline
  T/C: 131 % of control
dose: 4.0 mg/kg/injection, schedule: Q01DX010 (ip), vehicle: saline
  survivor count: 6 of 6
dose: 8.0 mg/kg/injection, schedule: Q01DX010 (ip), vehicle: saline
  survivor count: 5 of 6
[7]
  survivor count: 2 of 6

## CCCSc1ncnc2nc[nH]c12
[8]
  T/C: 130 % of control
  survivor count: 6 of 6
[9]
  survivor count: 2 of 6
dose: 100.0 mg/kg/injection, schedule: Q01DX Z (ip), vehicle: carboxymethylcellulose (CMC)
  survivor count: 6 of 6
dose: 200.0 mg/kg/injection, schedule: Q01DX Z (ip), vehicle: carboxymethylcellulose (CMC)
  survivor count: 1 of 6
[5]
  survivor count: 4 of 6

## O=C(Nc1ccc(NC2=NCCN2)cc1)c1ccc(C(=O)Nc2ccc(NC3=NCCN3)cc2)cc1
[7]
  T/C: 131 % of control
dose: 16.0 mg/kg/injection, schedule: Q01DX Z (ip), vehicle: saline
  T/C: 139 % of control

## CC1CCOS(=O)O1 (stereo unspecified)
dose: 80.0 mg/kg/injection, schedule: Q01DX010 (ip), vehicle: saline
  survivor count: 6 of 6

## CCn1cnc2c(=S)nc[nH]c21
dose: 7.8 mg/kg/injection, schedule: Q01DX Z (ip), vehicle: carboxymethylcellulose (CMC)
  survivor count: 6 of 6
[1]
  survivor count: 6 of 6
[2]
  survivor count: 6 of 6
[3]
  survivor count: 6 of 6
[4]
  survivor count: 5 of 6
[6]
  survivor count: 6 of 6

## Nc1ncnc2[nH]ncc12
dose: 6.0 mg/kg/injection, schedule: Q01DX010 (ip), vehicle: saline
  T/C: 128 % of control
dose: 12.0 mg/kg/injection, schedule: Q01DX010 (ip), vehicle: saline
  T/C: 128 % of control
[9]
  survivor count: 2 of 6

## Nc1nc(F)nc2c1ncn2C1OC(CO)C(O)C1O (stereo unspecified)
dose: 250.0 micrograms/kg/injection, schedule: Q01DX010 (ip), vehicle: saline
  T/C: 133 % of control
